Test results from patent US8524465B2, “Agonists of bitter taste receptors and uses thereof” (Deutsches Institut fuer Ernaehrungsforschung …, priority 2007, dated 2013).
At least one compound was matched to its structure with a doubt left.

Tests used:
TAS2R10 = target: T1, TAS2R10 (Homo sapiens, UniProt Q9NYW0, T156M); assay: FLIPR calcium imaging, HEK-293T Gα16gust44 cells expressing TAS2R10; type: cell-based; settings: calcium response, transfected HEK-293T Gα16gust44 cells
T1 construct: expressed in transfected cells; host or cells: HEK-293T cells stably expressing the chimeric G-protein subunit Gα16gust44
T1 sequence (Q9NYW0 1-307 T156M): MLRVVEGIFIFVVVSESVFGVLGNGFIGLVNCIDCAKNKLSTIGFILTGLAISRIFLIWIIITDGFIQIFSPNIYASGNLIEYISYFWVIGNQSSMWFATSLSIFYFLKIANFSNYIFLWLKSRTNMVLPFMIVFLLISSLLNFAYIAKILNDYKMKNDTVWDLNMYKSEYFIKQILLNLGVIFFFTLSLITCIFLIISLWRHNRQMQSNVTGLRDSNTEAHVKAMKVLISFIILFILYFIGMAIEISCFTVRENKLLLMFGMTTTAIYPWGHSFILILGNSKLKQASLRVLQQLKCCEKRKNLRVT
Description: (§1) Tastants (Sigma-Aldrich, Taufkirchen, Germany) were dissolved and administered in the following (in mM): 130 NaCl, 5 KCl, 10 HEPES, 2 CaCl2, and 10 mM glucose, pH7.4. Data were collected from 1-2 independent experiments performed at least in triplicate and processed with SigmaPlot (SPSS, Chicago, Ill.). For dose-response curve calculation, the peak fluorescence responses after compound addition were corrected for and normalized to background fluorescence (ΔF/F=(F−F0)/F0), and baseline noise was subtracted.
(§2) All 25 human bitter taste receptors were challenged with 100 μM artemorin (FIG. 1) in a FLIPR calcium imaging experiment.

TAS2R14 = target: T2, TAS2R14 (Homo sapiens, UniProt Q9NYV8); assay: FLIPR calcium imaging, HEK-293T Gα16gust44 cells expressing TAS2R14; type: cell-based; settings: calcium response, transfected HEK-293T Gα16gust44 cells
T2 construct: expressed in transfected cells; host or cells: HEK-293T cells stably expressing the chimeric G-protein subunit Gα16gust44
T2 sequence (Q9NYV8 1-317): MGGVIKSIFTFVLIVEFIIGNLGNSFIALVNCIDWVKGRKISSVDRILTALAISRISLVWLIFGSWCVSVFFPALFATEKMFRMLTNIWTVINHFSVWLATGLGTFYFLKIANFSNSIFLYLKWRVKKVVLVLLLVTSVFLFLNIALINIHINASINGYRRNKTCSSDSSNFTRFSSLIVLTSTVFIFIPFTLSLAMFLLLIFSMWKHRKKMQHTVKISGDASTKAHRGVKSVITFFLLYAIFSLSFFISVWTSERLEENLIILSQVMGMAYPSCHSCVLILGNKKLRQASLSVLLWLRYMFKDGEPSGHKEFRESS
Description: as §1, §2

Question: How did the “molar range at which TAS2R10 responded to the bitter substance” value (“molar range at which TAS2R10 responded” below) (TAS2R10) turn out when `CC(=O)O[C@@H]1C[C@]2(C)[C@H](CC[C@@H](O)[C@]2(C)O)[C@@](C=O)(C[C@@H](O)c2ccoc2)[C@@H]1C` [Cascarillin] was run?
Answer: 0.1-0.003

Question: Which “molar range at which TAS2R14 responded to the bitter substance” value (TAS2R14) does the source give for `CC(C)=CCC(=O)C1(O)C(O)=C(C(=O)CC(C)C)C(=O)C1CC=C(C)C` (centres unmarked) [Isohumulone] here?
Answer: 0.03-0.00003

Question: For `CC(C)[C@]12CC(=O)[C@H](C)[C@H]1C2` [(−)-a-Thujon], which “molar range at which TAS2R10 responded” value (TAS2R10) is on record?
Answer: 0.3-0.03

Question: For `CC1=C[C@H]2[C@H]3[C@H](C(C)=C4[C@H]5OC(=O)[C@@H](C)[C@@H]5CC[C@](C)(O)[C@@H]43)[C@@]13[C@@H]2[C@@](C)(O)CC[C@H]1[C@H](C)C(=O)O[C@@H]13` [Absinthin], which “molar range at which TAS2R10 responded” value (TAS2R10) is on record?
Answer: 0.3-0.01

Question: And the “molar range at which TAS2R14 responded to the bitter substance” value (TAS2R14)?
Answer: 0.1-0.0001
